The text below walks through data of article PMC9373809.

Chains of the proteins cited; added tags and fusions are not shown. Lines headed by an entry give the natural chain unless they say otherwise; changes in a name come on top. A line that says so, or that is headed by a name, gives the form on record, which may keep a tag or linker. Residues count along the entry.
UniProt P48431: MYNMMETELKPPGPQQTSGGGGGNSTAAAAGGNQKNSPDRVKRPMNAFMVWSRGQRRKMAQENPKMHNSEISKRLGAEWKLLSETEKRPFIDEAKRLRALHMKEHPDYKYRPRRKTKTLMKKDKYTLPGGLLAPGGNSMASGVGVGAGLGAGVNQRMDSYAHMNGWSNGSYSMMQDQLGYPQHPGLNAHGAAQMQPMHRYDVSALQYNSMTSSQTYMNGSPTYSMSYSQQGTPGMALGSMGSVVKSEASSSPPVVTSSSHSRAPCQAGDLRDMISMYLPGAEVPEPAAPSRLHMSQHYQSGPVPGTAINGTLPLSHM
GST-fused SOX2 (a.a. 1-204): residues 1-204 of P48431
GST-fused SOX2 (a.a. 1-120): residues 1-120 of P48431
UniProt O15047: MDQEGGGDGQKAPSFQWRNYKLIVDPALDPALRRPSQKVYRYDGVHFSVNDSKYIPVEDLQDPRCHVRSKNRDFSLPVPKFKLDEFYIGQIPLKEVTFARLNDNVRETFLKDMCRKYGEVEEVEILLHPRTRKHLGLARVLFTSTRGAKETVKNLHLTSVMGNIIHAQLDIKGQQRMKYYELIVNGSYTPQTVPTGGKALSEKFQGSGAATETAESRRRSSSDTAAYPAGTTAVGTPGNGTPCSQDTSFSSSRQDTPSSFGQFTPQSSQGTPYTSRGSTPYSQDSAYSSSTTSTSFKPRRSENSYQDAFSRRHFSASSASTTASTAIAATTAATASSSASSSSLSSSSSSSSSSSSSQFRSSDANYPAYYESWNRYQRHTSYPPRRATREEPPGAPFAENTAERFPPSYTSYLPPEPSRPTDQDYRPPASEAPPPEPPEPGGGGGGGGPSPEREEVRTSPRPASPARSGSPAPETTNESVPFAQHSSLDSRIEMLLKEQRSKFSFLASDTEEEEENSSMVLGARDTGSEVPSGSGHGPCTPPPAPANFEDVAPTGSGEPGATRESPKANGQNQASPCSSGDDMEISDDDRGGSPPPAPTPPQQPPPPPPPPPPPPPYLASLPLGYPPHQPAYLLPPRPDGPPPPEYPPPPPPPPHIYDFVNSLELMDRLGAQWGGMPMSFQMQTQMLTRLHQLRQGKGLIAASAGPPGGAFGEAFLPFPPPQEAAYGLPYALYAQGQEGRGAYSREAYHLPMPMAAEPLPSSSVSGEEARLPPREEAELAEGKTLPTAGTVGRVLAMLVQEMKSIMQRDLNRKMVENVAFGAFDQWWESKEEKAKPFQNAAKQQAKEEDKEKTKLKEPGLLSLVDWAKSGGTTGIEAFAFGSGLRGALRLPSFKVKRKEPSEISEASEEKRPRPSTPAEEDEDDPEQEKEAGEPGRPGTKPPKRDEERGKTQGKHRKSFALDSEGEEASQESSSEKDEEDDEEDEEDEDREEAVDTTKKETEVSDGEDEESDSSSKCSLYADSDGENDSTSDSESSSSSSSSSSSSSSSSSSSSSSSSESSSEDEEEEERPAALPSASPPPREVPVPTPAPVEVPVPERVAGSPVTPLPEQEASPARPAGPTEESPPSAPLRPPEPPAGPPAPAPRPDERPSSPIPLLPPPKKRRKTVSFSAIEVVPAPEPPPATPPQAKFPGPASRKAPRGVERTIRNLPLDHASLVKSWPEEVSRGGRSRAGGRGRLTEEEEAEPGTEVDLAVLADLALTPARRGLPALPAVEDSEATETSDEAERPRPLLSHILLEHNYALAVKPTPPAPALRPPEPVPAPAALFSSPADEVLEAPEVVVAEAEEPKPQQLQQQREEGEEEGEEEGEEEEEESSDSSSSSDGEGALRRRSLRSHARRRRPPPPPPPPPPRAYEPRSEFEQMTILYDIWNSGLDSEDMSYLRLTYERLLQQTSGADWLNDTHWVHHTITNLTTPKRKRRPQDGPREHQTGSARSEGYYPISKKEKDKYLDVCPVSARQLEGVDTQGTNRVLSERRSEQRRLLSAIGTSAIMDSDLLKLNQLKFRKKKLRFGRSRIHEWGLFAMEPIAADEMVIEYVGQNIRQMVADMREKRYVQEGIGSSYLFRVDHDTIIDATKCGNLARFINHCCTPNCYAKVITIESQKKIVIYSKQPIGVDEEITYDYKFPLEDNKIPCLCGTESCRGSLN
His-tagged SET domain of SETD1A with the Win motif (Win-SET, a.a. 1450-1707): residues 1450-1707 of O15047

No constants are given. Whether binding was seen depends on the method and setting. In cells and extracts the contact can be indirect. Some binding calls cover weakened binding; strength is not graded here.

Test [1] concerns the target GST-fused SOX2 (a.a. 1-317) (UniProt P48431). The test can be described thus: pull-down; GST-tagged SOX2 truncations from E. coli incubated with in vitro transcribed and translated FLAG-tagged full-length SETD1A; bound SETD1A detected with anti-FLAG antibody; only the target purified.
For test [2], the target named is GST-fused SOX2 (a.a. 1-204) (UniProt P48431). The description is as above.
The target of test [3] is GST-fused SOX2 (a.a. 1-120) (UniProt P48431). Described as above.
Test [4] concerns the target SET domain containing 1A (SETD1A), endogenous (human (endogenous in TamR MCF-7)) (UniProt O15047). Briefly: co-IP; TamR cell extracts (20 mM Tris-Cl pH 8.0, 150 mM NaCl, 1% NP-40, 2 mM EDTA); anti-SETD1A or anti-SOX2 antibody on Protein A/G agarose beads, overnight at 4 °C; western blot of SOX2 or SETD1A. (In western blotting, separated proteins are transferred to a membrane and probed.)

Test [5] has as its target His-tagged SET domain of SETD1A with the Win motif (Win-SET, a.a. 1450-1707) (UniProt O15047). Briefly: pull-down; His-tagged SET domains of SETD1A (Win-SET or SET) bound to Ni-NTA beads, incubated with TamR cell lysates; bound SOX2 detected with anti-SOX2 antibody; only the target purified.

As to “FLAG-tagged full-length SETD1A (from UniProt O15047 1-1707)”, the binding result in test [1], in test [2] and in test [3] was “binds” each time.

As to “SRY-box transcription factor 2 (SOX2), endogenous (from UniProt P48431 1-317)”, the binding entry in test [4] and in test [5] was “binds” in each case.
